Laboratory results reported in article PMC12022293.
These are yes or no findings as the source states them, for the method shown. Binding seen in cells or lysates may run through a third protein. These calls come from enrichment with a bait or labelling near it, and not all partners need be listed.

Chains of the proteins cited; added tags and fusions are not shown.
UniProt Q5VVQ6: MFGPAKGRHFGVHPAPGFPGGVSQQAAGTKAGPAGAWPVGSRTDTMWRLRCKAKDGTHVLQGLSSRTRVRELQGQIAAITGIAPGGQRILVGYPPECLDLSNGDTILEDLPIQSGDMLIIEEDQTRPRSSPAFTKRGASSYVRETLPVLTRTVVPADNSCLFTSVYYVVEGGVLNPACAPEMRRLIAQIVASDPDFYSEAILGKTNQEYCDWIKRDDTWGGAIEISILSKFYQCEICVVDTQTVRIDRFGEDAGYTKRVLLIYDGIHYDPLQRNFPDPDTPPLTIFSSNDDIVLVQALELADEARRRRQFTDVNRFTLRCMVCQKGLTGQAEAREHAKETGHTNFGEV
UniProt P17028: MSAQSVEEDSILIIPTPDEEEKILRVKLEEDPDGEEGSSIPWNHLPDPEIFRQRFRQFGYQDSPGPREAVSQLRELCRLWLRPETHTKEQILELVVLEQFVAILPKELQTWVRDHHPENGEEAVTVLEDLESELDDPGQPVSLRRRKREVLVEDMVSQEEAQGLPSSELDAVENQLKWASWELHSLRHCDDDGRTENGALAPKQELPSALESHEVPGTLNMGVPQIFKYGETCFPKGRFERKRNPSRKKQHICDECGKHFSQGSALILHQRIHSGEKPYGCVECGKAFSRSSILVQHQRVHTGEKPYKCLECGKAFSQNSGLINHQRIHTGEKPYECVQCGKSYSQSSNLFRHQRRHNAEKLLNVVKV

Biological target: Flag-YOD1 (overexpressed in 786-O cells) (human) (UniProt Q5VVQ6)
Experiment: affinity purification with mass spectrometry; Flag-YOD1 overexpressed in 786-O cells; lysate in IP lysis buffer on Flag-labelled magnetic beads overnight at 4 °C, washed with PBST, SDS-PAGE, bands excised, LC-MS/MS

binding: binds
Substance: ZNF24, endogenous in 786-O cells (from UniProt P17028 1-368)
